# Experimental data reported in the supplement of paper PMC8728848.
# Some of the results follow.
# Key:
# Assay in all cases: glycan array binding signal (z-score within array); higher = stronger binding
# Settings in all cases: glycan notation: IUPAC condensed, linker removed
# [1] = target: Fuc(a1-3)[Gal(b1-4)]GlcNAc(b1-3)Gal(b1-4)[Fuc(a1-3)]GlcNAc
# Summary of the method: (§1)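 Glycan array data were curated from 3228 arrays in the Consortium for Functional Glycomics database and kept only where the protein sequence was available. Glycan names were converted to IUPAC-condensed notation, and columns mapping to the same glycan were averaged. The binding signal is a within-array Z-score, averaged across arrays of the same protein sequence at different concentrations or buffers and across linkers. Negative Z-scores can be read as non-binding.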
# [2] = target: Fuc(a1-3)[Gal(b1-4)]GlcNAc(b1-3)Gal(b1-4)[Fuc(a1-3)]GlcNAc(b1-3)Gal(b1-4)[Fuc(a1-3)]GlcNAc
# Summary of the method: as §1
# [3] = target: Fuc(a1-3)[Gal(b1-4)]GlcNAc(b1-3)GalNAc
# Summary of the method: as §1
# [4] = target: Fuc(a1-3)[Gal(b1-4)]GlcNAc(b1-6)GalNAc
# Summary of the method: as §1
# [5] = target: Fuc(a1-3)[Gal(b1-4)]GlcNAc(b1-6)[Gal(b1-3)GlcNAc(b1-3)]Gal(b1-4)Glc
# Summary of the method: as §1
# [6] = target: Fuc(a1-3)[Gal(b1-4)]GlcNAc6S
# Summary of the method: as §1
# [7] = target: Fuc(a1-3)[Gal3S(b1-4)]Glc
# Summary of the method: as §1
# [8] = target: Fuc(a1-3)[Gal3S(b1-4)]GlcNAc
# Summary of the method: as §1
# [9] = target: Fuc(a1-3)[Gal3S(b1-4)]GlcNAc6S
# Summary of the method: as §1
# [10] = target: Fuc(a1-3)[GalNAc(b1-4)]GlcNAc
# Summary of the method: as §1
# [11] = target: Fuc(a1-3)[GalNAc(b1-4)]GlcNAc6S
# Summary of the method: as §1
# [12] = target: Fuc(a1-4)GlcNAc
# Summary of the method: as §1
# [13] = target: Fuc(b1-3)GlcNAc
# Summary of the method: as §1
# [14] = target: Gal(a1-2)Gal
# Summary of the method: as §1
# [15] = target: Gal(a1-3)Gal
# Summary of the method: as §1
# [16] = target: Gal(a1-3)Gal(b1-3)GlcNAc
# Summary of the method: as §1
# [17] = target: Gal(a1-3)Gal(b1-3)GlcNAc(b1-2)Man
# Summary of the method: as §1
# [18] = target: Gal(a1-3)Gal(b1-3)GlcNAc(b1-2)Man(a1-3)[Gal(a1-3)Gal(b1-3)GlcNAc(b1-2)Man(a1-6)]Man(b1-4)GlcNAc(b1-4)GlcNAc
# Summary of the method: as §1
# [19] = target: Gal(a1-3)Gal(b1-3)GlcNAc(b1-3)GalNAc
# Summary of the method: as §1
# [20] = target: Gal(a1-3)Gal(b1-3)GlcNAc(b1-6)GalNAc
# Summary of the method: as §1
# [21] = target: Gal(a1-3)Gal(b1-3)[Fuc(a1-4)]GlcNAc(b1-2)Man(a1-3)[Gal(a1-3)Gal(b1-3)[Fuc(a1-4)]GlcNAc(b1-2)Man(a1-6)]Man(b1-4)GlcNAc(b1-4)GlcNAc
# Summary of the method: as §1
# [22] = target: Gal(a1-3)Gal(b1-4)Glc
# Summary of the method: as §1
# [23] = target: Gal(a1-3)Gal(b1-4)GlcNAc
# Summary of the method: as §1
# [24] = target: Gal(a1-3)Gal(b1-4)GlcNAc(b1-2)Man
# Summary of the method: as §1
# [25] = target: Gal(a1-3)Gal(b1-4)GlcNAc(b1-2)Man(a1-3)[Gal(a1-3)Gal(b1-4)GlcNAc(b1-2)Man(a1-6)]Man(b1-4)GlcNAc(b1-4)GlcNAc
# Summary of the method: as §1
# [26] = target: Gal(a1-3)Gal(b1-4)GlcNAc(b1-3)GalNAc
# Summary of the method: as §1
# [27] = target: Gal(a1-3)Gal(b1-4)GlcNAc(b1-6)GalNAc
# Summary of the method: as §1
# [28] = target: Gal(a1-3)Gal(b1-4)[Fuc(a1-3)]GlcNAc
# Summary of the method: as §1
# [29] = target: Gal(a1-3)Gal(b1-4)[Fuc(a1-3)]GlcNAc(b1-2)Man(a1-3)[Gal(a1-3)Gal(b1-4)[Fuc(a1-3)]GlcNAc(b1-2)Man(a1-6)]Man(b1-4)GlcNAc(b1-4)GlcNAc
# Summary of the method: as §1
# [30] = target: Gal(a1-3)GalNAc
# Summary of the method: as §1
# [31] = target: Gal(a1-3)[Gal(a1-4)]Gal(b1-4)GlcNAc
# Summary of the method: as §1
# [32] = target: Gal(a1-4)Gal(b1-3)GlcNAc(b1-2)Man(a1-3)[Gal(a1-4)Gal(b1-3)GlcNAc(b1-2)Man(a1-6)]Man(b1-4)GlcNAc(b1-4)GlcNAc
# Summary of the method: as §1
# [33] = target: Gal(a1-4)Gal(b1-4)Glc
# Summary of the method: as §1
# [34] = target: Gal(a1-4)Gal(b1-4)GlcNAc
# Summary of the method: as §1
# [35] = target: Gal(a1-4)Gal(b1-4)GlcNAc(b1-2)Man(a1-3)[Gal(a1-4)Gal(b1-4)GlcNAc(b1-2)Man(a1-6)]Man(b1-4)GlcNAc(b1-4)GlcNAc
# Summary of the method: as §1
# [36] = target: Gal(a1-4)Gal(b1-4)GlcNAc(b1-3)Gal(b1-4)Glc
# Summary of the method: as §1
# [37] = target: Gal(a1-4)GlcNAc
# Summary of the method: as §1
# [38] = target: Gal(a1-6)Glc
# Summary of the method: as §1
binder,measurement,setting,value
PX9961W-pdi-543-27-543 (Parabacteroides distasonis) (protein) EGNATTTSYFLNDQQAIDAIDGLYERFHQEGCYGRELFWEQGAACDIVWGRTRGYNSLATLAYTGDESPLRDVFSRMYSTMSRANWIIQELVKKEKGTTLTAVEKRSLGEAYFSRGWAHYLIAYRYGTDKQGVPFVRYEDFPDDYDNSIPPQQATVMDNYKLIIEDMDKAIAYLPIFESYDADNRGRAHQAAAVAFKAKTYAYWATWDATQWNNVIEMVNQLENNYNRDLAPTFAELFSSDLKDYWNAEYLWTIPSIGGALPGGTEFPGIILENKGWGKYNGWGQMKPSYDIYEEMAKDGKGNDRLVRSILEYNQEFPFFGETRKFWSTSDLEAGFMINKYMDAFKYSDPVGEGAVSANGDWPTVRVNFPIIRFAEMLLFRAEAYLMTGQADKATADINRIRLRSNLTPLTGTATMKDLYHERRCELAFEFTDHLFDLKRWNRSSNADIKTLADKELNAHPRIRRYEDRANPESAFTIIGYEDYTNKNAYQAHMMVFPYPSEEITKSNGQLKQNEGY,glycan array binding signal (z-score),[1],1.22
same,glycan array binding signal (z-score),[2],-0.133
same,glycan array binding signal (z-score),[3],-0.28
same,glycan array binding signal (z-score),[4],0.447
same,glycan array binding signal (z-score),[5],-0.969
same,glycan array binding signal (z-score),[6],0.019
same,glycan array binding signal (z-score),[7],-0.215
same,glycan array binding signal (z-score),[8],-0.507
same,glycan array binding signal (z-score),[9],-0.934
same,glycan array binding signal (z-score),[10],-0.877
same,glycan array binding signal (z-score),[11],0.762
same,glycan array binding signal (z-score),[12],-0.806
same,glycan array binding signal (z-score),[13],-0.123
same,glycan array binding signal (z-score),[14],0.391
same,glycan array binding signal (z-score),[15],-0.512
same,glycan array binding signal (z-score),[16],-0.356
same,glycan array binding signal (z-score),[17],0.221
same,glycan array binding signal (z-score),[18],1.2
same,glycan array binding signal (z-score),[19],-0.115
same,glycan array binding signal (z-score),[20],-0.936
same,glycan array binding signal (z-score),[21],-0.208
same,glycan array binding signal (z-score),[22],-0.166
same,glycan array binding signal (z-score),[23],-0.055
same,glycan array binding signal (z-score),[24],-0.868
same,glycan array binding signal (z-score),[25],0.389
same,glycan array binding signal (z-score),[26],-0.184
same,glycan array binding signal (z-score),[27],0.486
same,glycan array binding signal (z-score),[28],-0.49
same,glycan array binding signal (z-score),[29],1.51
same,glycan array binding signal (z-score),[30],0.176
same,glycan array binding signal (z-score),[31],4.9
same,glycan array binding signal (z-score),[32],-0.69
same,glycan array binding signal (z-score),[33],-1.26
same,glycan array binding signal (z-score),[34],-0.299
same,glycan array binding signal (z-score),[35],-0.19
same,glycan array binding signal (z-score),[36],-0.322
same,glycan array binding signal (z-score),[37],-0.436
same,glycan array binding signal (z-score),[38],-1.09

# An excerpt of these results, with bars between the fields:
binder | measurement | setting | value
PX9961W-pdi-543-27-543 (Parabacteroides distasonis) (protein) EGNATTTSYFLNDQQAIDAIDGLYERFHQEGCYGRELFWEQGAACDIVWGRTRGYNSLATLAYTGDESPLRDVFSRMYSTMSRANWIIQELVKKEKGTTLTAVEKRSLGEAYFSRGWAHYLIAYRYGTDKQGVPFVRYEDFPDDYDNSIPPQQATVMDNYKLIIEDMDKAIAYLPIFESYDADNRGRAHQAAAVAFKAKTYAYWATWDATQWNNVIEMVNQLENNYNRDLAPTFAELFSSDLKDYWNAEYLWTIPSIGGALPGGTEFPGIILENKGWGKYNGWGQMKPSYDIYEEMAKDGKGNDRLVRSILEYNQEFPFFGETRKFWSTSDLEAGFMINKYMDAFKYSDPVGEGAVSANGDWPTVRVNFPIIRFAEMLLFRAEAYLMTGQADKATADINRIRLRSNLTPLTGTATMKDLYHERRCELAFEFTDHLFDLKRWNRSSNADIKTLADKELNAHPRIRRYEDRANPESAFTIIGYEDYTNKNAYQAHMMVFPYPSEEITKSNGQLKQNEGY | glycan array binding signal (z-score) | [5] | -0.969
same | glycan array binding signal (z-score) | [6] | 0.019
